Laboratory results reported in PMC5379943.
No constants are given. Whether binding was seen depends on the method and setting. For part of these data: Binding seen in cells or lysates may run through a third protein. Some binding calls cover weakened binding; strength is not graded here. One block for each binder: values may come before it.

Sequences of proteins named here, by UniProt entry; tags and fusion partners are left off. A change or cut given only in a name is not applied to a line headed by its entry. A line that says so, or that is headed by a name, gives the form on record, which may keep a tag or linker.
UniProt Q9Y4G2: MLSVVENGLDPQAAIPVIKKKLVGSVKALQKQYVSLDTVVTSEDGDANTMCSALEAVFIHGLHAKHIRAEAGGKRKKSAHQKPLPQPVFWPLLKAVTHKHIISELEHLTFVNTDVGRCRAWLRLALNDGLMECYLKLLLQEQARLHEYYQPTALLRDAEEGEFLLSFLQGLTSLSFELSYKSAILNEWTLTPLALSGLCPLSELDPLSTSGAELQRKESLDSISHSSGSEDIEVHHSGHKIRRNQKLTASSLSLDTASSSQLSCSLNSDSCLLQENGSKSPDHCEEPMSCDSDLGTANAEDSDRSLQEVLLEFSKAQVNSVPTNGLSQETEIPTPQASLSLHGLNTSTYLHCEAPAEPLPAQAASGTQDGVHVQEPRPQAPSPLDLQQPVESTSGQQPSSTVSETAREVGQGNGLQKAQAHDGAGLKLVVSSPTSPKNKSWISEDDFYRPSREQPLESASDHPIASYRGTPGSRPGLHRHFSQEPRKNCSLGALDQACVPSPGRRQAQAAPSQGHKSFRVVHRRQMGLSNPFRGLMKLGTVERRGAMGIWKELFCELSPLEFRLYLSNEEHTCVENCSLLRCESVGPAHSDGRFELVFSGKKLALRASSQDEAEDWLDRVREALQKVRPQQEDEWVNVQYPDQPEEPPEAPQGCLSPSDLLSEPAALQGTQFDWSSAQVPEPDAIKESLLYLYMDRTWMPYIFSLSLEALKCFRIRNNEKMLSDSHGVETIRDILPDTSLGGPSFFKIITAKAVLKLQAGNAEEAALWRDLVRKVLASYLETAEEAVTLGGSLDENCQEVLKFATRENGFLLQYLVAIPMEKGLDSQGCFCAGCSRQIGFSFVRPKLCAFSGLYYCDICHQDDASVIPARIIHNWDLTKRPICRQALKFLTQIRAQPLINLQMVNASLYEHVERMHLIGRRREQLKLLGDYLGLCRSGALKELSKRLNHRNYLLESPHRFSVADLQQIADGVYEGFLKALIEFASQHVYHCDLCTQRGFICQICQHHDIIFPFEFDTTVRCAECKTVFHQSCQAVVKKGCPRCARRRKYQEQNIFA
PLEKHM1 (HRR→A) (construct of Fig. S3 b–d not shown) (Q9Y4G2, form named): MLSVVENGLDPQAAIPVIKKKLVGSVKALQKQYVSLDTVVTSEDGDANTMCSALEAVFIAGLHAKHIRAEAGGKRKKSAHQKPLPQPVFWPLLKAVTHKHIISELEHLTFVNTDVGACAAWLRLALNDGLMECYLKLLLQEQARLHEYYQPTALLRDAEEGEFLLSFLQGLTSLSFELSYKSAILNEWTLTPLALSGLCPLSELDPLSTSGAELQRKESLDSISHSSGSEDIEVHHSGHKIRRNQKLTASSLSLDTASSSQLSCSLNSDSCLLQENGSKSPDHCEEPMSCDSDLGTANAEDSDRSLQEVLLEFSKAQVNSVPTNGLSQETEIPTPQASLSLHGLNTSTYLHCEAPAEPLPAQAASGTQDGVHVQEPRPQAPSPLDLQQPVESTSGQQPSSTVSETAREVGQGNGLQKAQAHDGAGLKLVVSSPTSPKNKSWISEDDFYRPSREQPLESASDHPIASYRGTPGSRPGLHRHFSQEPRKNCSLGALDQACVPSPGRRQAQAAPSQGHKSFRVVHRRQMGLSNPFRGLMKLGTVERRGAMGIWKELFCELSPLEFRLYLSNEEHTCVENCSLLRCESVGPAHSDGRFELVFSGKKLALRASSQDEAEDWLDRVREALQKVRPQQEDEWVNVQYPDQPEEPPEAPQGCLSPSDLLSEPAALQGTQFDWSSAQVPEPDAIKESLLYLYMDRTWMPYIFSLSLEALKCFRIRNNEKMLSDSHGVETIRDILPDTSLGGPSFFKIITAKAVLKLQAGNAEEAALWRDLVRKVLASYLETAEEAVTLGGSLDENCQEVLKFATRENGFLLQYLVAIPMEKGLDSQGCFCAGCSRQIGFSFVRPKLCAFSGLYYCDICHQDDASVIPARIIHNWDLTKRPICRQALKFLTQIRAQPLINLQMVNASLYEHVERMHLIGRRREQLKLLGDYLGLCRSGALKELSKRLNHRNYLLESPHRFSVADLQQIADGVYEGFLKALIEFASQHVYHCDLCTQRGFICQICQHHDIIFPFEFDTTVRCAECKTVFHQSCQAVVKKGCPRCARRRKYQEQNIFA

Assays:
[1] = molecular target: full-length PLEKHM1, Q9Y4G2; test: two-hybrid; GAL4-AD and GAL4-BD fusions co-transformed in S. cerevisiae Gold or AH109; growth on -Leu-Trp-His medium, 30°C; details: remark: other sources report otherwise
[2] = molecular target: full-length PLEKHM1 (UniProt Q9Y4G2); test: as above
[3] = molecular target: FLAG-PLEKHM1 (WT) (UniProt Q9Y4G2); test: co-IP; HEK293T cells treated with control- or Arl8b-siRNA and expressing FLAG-PLEKHM1; anti-FLAG antibody resin; immunoblot
[4] = molecular target: PLEKHM1 (WT; construct of Fig. S1 b–e and Fig. S3 d not shown) (UniProt Q9Y4G2); test: co-IP; Fig. S3 d; PLEKHM1 WT or HRR→A as bait; details not shown
[5] = molecular target: PLEKHM1 (HRR→A) (construct of Fig. S3 b–d not shown) (UniProt Q9Y4G2); test: as above

B2: Vps39 (protein, UniProt Q96JC1 1-886)
chain: MHDAFEPVPILEKLPLQIDCLAAWEEWLLVGTKQGHLLLYRIRKDVVPADVASPESGSCNRFEVTLEKSNKNFSKKIQQIHVVSQFKILVSLLENNIYVHDLLTFQQITTVSKAKGASLFTCDLQHTETGEEVLRMCVAVKKKLQLYFWKDREFHELQGDFSVPDVPKSMAWCENSICVGFKRDYYLIRVDGKGSIKELFPTGKQLEPLVAPLADGKVAVGQDDLTVVLNEEGICTQKCALNWTDIPVAMEHQPPYIIAVLPRYVEIRTFEPRLLVQSIELQRPRFITSGGSNIIYVASNHFVWRLIPVPMATQIQQLLQDKQFELALQLAEMKDDSDSEKQQQIHHIKNLYAFNLFCQKRFDESMQVFAKLGTDPTHVMGLYPDLLPTDYRKQLQYPNPLPVLSGAELEKAHLALIDYLTQKRSQLVKKLNDSDHQSSTSPLMEGTPTIKSKKKLLQIIDTTLLKCYLHTNVALVAPLLRLENNHCHIEESEHVLKKAHKYSELIILYEKKGLHEKALQVLVDQSKKANSPLKGHERTVQYLQHLGTENLHLIFSYSVWVLRDFPEDGLKIFTEDLPEVESLPRDRVLGFLIENFKGLAIPYLEHIIHVWEETGSRFHNCLIQLYCEKVQGLMKEYLLSFPAGKTPVPAGEEEGELGEYRQKLLMFLEISSYYDPGRLICDFPFDGLLEERALLLGRMGKHEQALFIYVHILKDTRMAEEYCHKHYDRNKDGNKDVYLSLLRMYLSPPSIHCLGPIKLELLEPKANLQAALQVLELHHSKLDTTKALNLLPANTQINDIRIFLEKVLEENAQKKRFNQVLKNLLHAEFLRVQEERILHQQVKCIITEEKVCMVCKKKIGNSAFARYPNGVVVHYFCSKEVNPADT
binding [2]: binds

B3: Vps39 (construct of the co-precipitations not shown) (protein, UniProt Q96JC1 1-886)
chain: B2 chain
binding [3]: binds | binding [4]: binds | binding [5]: binds

Results, then the binder that gave them:

binding [1]: no binding
B1: Vps41, P49754 1-854 (protein)
chain: MAEAEEQETGSLEESTDESEEEESEEEPKLKYERLSNGVTEILQKDAASCMTVHDKFLALGTHYGKVYLLDVQGNITQKFDVSPVKINQISLDESGEHMGVCSEDGKVQVFGLYSGEEFHETFDCPIKIIAVHPHFVRSSCKQFVTGGKKLLLFERSWMNRWKSAVLHEGEGNIRSVKWRGHLIAWANNMGVKIFDIISKQRITNVPRDDISLRPDMYPCSLCWKDNVTLIIGWGTSVKVCSVKERHASEMRDLPSRYVEIVSQFETEFYISGLAPLCDQLVVLSYVKEISEKTEREYCARPRLDIIQPLSETCEEISSDALTVRGFQENECRDYHLEYSEGESLFYIVSPRDVVVAKERDQDDHIDWLLEKKKYEEALMAAEISQKNIKRHKILDIGLAYINHLVERGDYDIAARKCQKILGKNAALWEYEVYKFKEIGQLKAISPYLPRGDPVLKPLIYEMILHEFLESDYEGFATLIREWPGDLYNNSVIVQAVRDHLKKDSQNKTLLKTLAELYTYDKNYGNALEIYLTLRHKDVFQLIHKHNLFSSIKDKIVLLMDFDSEKAVDMLLDNEDKISIKKVVEELEDRPELQHVYLHKLFKRDHHKGQRYHEKQISLYAEYDRPNLLPFLRDSTHCPLEKALEICQQRNFVEETVYLLSRMGNSRSALKMIMEELHDVDKAIEFAKEQDDGELWEDLILYSIDKPPFITGLLNNIGTHVDPILLIHRIKEGMEIPNLRDSLVKILQDYNLQILLREGCKKILVADSLSLLKKMHRTQMKGVLVDEENICESCLSPILPSDAAKPFSVVVFHCRHMFHKECLPMPSMNSAAQFCNICSAKNRGPGSAILEMKK

binding [2]: binds weakly
B4: Vps18 (protein, UniProt Q9P253 1-973)
chain: MASILDEYENSLSRSAVLQPGCPSVGIPHSGYVNAQLEKEVPIFTKQRIDFTPSERITSLVVSSNQLCMSLGKDTLLRIDLGKANEPNHVELGRKDDAKVHKMFLDHTGSHLLIALSSTEVLYVNRNGQKVRPLARWKGQLVESVGWNKALGTESSTGPILVGTAQGHIFEAELSASEGGLFGPAPDLYFRPLYVLNEEGGPAPVCSLEAERGPDGRSFVIATTRQRLFQFIGRAAEGAEAQGFSGLFAAYTDHPPPFREFPSNLGYSELAFYTPKLRSAPRAFAWMMGDGVLYGALDCGRPDSLLSEERVWEYPEGVGPGASPPLAIVLTQFHFLLLLADRVEAVCTLTGQVVLRDHFLEKFGPLKHMVKDSSTGQLWAYTERAVFRYHVQREARDVWRTYLDMNRFDLAKEYCRERPDCLDTVLAREADFCFRQRRYLESARCYALTQSYFEEIALKFLEARQEEALAEFLQRKLASLKPAERTQATLLTTWLTELYLSRLGALQGDPEALTLYRETKECFRTFLSSPRHKEWLFASRASIHELLASHGDTEHMVYFAVIMQDYERVVAYHCQHEAYEEALAVLARHRDPQLFYKFSPILIRHIPRQLVDAWIEMGSRLDARQLIPALVNYSQGGEVQQVSQAIRYMEFCVNVLGETEQAIHNYLLSLYARGRPDSLLAYLEQAGASPHRVHYDLKYALRLCAEHGHHRACVHVYKVLELYEEAVDLALQVDVDLAKQCADLPEEDEELRKKLWLKIARHVVQEEEDVQTAMACLASCPLLKIEDVLPFFPDFVTIDHFKEAICSSLKAYNHHIQELQREMEEATASAQRIRRDLQELRGRYGTVEPQDKCATCDFPLLNRPFYLFLCGHMFHADCLLQAVRPGLPAYKQARLEELQRKLGAAPPPAKGSARAKEAEGGAATAGPSREQLKADLDELVAAECVYCGELMIRSIDRPFIDPQRYEEEQLSWL
